Values of other authors, collected in patent US5712148A (Synaptic Pharmaceutical Corporation, priority 1995, dated 1998).

Test system: dog betaine/GABA transporter
Settings: read-out: KM for GABA (dog); expressed in oocytes; 30 minutes at 25° C. (Yamauchi et al., 1992); cited from earlier work

Q: For NCCCC(=O)O [GABA, γ-aminobutyric acid], which Km is on record?
A: 93 µM
